Results are given in words; binding and its absence hold for the method and conditions named. Binding seen in cells or lysates may run through a third protein. Some entries that bind do so weakly or less than the wild type.
Target: USP14, endogenous in mouse primary hepatocytes (mouse (endogenous in mouse primary hepatocytes)) (UniProt Q9JMA1)
Assay: co-IP; lysate of mouse primary hepatocytes incubated with anti-USP14 antibody or normal rabbit IgG; immunocomplexes probed by western blot

Protein sequences, listed by entry. Tags and fused reporters are not part of them.
UniProt Q9JMA1: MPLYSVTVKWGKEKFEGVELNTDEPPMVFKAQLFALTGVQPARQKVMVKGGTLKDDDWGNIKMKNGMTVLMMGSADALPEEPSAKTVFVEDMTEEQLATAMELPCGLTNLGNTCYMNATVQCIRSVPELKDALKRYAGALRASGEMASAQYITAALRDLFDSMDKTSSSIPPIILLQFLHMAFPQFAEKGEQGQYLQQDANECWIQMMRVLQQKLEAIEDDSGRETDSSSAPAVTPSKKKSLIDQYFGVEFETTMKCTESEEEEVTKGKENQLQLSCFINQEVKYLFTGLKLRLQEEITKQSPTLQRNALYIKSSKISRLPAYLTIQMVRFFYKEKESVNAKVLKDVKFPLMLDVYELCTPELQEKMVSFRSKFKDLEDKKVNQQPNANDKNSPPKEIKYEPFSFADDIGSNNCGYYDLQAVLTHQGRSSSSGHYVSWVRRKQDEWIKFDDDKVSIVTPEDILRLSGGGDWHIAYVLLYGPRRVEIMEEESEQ
UniProt P19096: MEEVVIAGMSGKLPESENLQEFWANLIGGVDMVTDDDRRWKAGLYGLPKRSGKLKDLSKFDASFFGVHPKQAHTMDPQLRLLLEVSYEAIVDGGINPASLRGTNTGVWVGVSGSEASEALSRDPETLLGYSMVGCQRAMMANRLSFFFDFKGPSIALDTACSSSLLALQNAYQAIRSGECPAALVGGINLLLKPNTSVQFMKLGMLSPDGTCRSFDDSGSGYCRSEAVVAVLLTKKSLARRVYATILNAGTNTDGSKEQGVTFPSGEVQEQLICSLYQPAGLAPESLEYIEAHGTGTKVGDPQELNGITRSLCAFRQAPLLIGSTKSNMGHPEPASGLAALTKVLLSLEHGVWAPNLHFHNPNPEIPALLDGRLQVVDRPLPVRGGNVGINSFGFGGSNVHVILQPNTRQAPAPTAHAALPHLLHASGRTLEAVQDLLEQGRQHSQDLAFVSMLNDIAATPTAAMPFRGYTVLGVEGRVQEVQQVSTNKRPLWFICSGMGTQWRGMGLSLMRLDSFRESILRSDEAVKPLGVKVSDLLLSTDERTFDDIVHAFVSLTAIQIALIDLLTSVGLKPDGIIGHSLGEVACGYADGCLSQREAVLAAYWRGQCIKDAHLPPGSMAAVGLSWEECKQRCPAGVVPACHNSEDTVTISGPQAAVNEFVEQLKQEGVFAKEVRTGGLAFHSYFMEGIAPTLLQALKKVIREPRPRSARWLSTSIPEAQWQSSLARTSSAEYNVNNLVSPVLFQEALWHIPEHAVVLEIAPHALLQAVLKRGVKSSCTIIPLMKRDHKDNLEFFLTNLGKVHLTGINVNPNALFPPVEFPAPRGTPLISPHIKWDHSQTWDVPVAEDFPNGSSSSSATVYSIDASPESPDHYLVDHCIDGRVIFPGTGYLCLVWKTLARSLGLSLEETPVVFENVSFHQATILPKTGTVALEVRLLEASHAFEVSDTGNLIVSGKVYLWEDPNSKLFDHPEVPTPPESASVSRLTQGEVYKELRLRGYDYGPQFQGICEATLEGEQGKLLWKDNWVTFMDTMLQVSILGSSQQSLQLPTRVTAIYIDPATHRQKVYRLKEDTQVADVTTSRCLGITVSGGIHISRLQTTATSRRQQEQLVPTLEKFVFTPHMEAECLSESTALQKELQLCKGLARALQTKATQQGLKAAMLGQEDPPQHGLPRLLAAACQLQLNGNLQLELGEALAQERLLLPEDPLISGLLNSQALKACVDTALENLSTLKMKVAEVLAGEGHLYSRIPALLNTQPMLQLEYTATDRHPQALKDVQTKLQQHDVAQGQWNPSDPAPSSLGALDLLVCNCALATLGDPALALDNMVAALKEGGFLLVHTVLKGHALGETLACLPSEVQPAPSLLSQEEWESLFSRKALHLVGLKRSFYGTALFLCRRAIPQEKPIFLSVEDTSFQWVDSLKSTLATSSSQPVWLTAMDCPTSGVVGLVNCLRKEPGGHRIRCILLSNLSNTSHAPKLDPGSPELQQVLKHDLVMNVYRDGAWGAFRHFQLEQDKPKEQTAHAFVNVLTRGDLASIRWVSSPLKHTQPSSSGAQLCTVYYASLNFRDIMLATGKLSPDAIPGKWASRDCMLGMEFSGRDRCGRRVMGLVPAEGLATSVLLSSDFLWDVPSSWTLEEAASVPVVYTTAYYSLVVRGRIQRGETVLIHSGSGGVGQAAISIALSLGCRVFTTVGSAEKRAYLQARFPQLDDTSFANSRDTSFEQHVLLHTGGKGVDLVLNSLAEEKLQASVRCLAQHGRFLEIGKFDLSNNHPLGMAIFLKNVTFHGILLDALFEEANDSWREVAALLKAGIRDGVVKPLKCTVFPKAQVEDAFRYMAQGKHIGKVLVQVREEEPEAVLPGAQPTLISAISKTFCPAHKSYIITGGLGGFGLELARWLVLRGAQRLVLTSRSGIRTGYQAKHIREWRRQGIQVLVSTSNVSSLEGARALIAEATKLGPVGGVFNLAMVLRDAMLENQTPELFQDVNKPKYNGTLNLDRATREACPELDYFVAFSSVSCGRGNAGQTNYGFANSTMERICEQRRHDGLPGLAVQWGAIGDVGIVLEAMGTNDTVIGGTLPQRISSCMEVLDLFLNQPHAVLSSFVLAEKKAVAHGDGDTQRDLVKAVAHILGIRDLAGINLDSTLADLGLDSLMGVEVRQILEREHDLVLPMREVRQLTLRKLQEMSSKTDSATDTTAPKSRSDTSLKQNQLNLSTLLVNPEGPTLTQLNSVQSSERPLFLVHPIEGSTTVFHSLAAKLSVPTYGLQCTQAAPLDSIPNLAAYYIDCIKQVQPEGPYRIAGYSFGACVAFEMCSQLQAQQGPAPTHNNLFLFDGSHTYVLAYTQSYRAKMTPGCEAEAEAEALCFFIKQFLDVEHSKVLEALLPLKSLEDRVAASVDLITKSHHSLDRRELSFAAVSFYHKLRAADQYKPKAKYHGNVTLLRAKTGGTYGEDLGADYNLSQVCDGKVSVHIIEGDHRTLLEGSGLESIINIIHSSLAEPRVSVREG

“fatty acid synthase (FASN), endogenous in mouse primary hepatocytes (from UniProt P19096 1-2504) (enzyme)” was tested, and the binding was “binds”.
